The source of these data is publication PMC11191083 (ACS Omega, 2024).

Molecules are shown by their SMILES.

The test system of this experiment is E. coli MG1655 + pBGS18 + CTX-M-14. Nature of the experiment: MIC broth microdilution, ampicillin with or without inhibitor. The format is cell-based. The following applies: Escherichia coli, MG1655, read-out: MIC of ampicillin without an inhibitor. In general terms: Broth dilution looks for growth in wells or tubes with falling amounts of substance.

Turning to `CC1(C)S[C@@H]2[C@H](NC(=O)[C@H](N)c3ccccc3)C(=O)N2[C@H]1C(=O)O` [AMP, ampicillin, reference compound], the MIC (commonly the lowest concentration found to suppress growth) was found to be 1020 µg/mL.
